Source: US10113189B2, “Isolation and characterization of a novel pythium omega 3 desaturase with specificity to all omega 6 fatty acids longer than 18 carbon chains” (priority 2006, dated 2018)

Tested on: ω-3 desaturase from Pythium irregulare
Type: cell-based, S. cerevisiae
Conditions: yeast transformant pYES2-O3; 100 μM exogenously supplied fatty acid substrate, 16° C., 4 days; GC of fatty acid methyl esters
Experimental: The plasmids containing the full length O3 genes in the yeast expression vector pYES2.1/V5-His-TOPO were transformed into yeast S. cerevisiae. The positive transformants were selected for uracil auxotrophy on DOB-U agar plates. To characterize the ω-3 desaturase enzyme activity, positive clones and the control (yeast with pYES2.1 vector) were cultured overnight in DOB-U liquid medium at 28° C. and then grown in induction medium (DOB-U+Gal+Raf) containing 100 μM of various exogenously supplied fatty acid substrates at 16° C. for 4 days. The whole yeast cells expressing Pythium ω-3 genes were harvested by centrifugation and washed twice with distilled water. Then the yeast cells were directly transmethylated with methanolic HCl (3N) at 80° C. for 1 hour. The resultant methyl esters were extracted with hexane and analyzed by gas chromatography (GC). GC was carried out as described in WO 2005/083053.

Compound	Substrate (%)
CCCCC/C=C\C/C=C\C/C=C\CCCCCCC(=O)O [DGLA, dihomo-γ-linolenic acid]	17.78%
CCCCC/C=C\C/C=C\C/C=C\CCCCC(=O)O [GLA, γ-linolenic acid]	22.79%
CCCCC/C=C\C/C=C\CCCCCCCC(=O)O [LA, linoleic acid]	25.56%
